## Primary screen of a compound library

Protein sequences, listed by entry. Tags and fused reporters are not part of them.
UniProt I6X8D2, whole entry: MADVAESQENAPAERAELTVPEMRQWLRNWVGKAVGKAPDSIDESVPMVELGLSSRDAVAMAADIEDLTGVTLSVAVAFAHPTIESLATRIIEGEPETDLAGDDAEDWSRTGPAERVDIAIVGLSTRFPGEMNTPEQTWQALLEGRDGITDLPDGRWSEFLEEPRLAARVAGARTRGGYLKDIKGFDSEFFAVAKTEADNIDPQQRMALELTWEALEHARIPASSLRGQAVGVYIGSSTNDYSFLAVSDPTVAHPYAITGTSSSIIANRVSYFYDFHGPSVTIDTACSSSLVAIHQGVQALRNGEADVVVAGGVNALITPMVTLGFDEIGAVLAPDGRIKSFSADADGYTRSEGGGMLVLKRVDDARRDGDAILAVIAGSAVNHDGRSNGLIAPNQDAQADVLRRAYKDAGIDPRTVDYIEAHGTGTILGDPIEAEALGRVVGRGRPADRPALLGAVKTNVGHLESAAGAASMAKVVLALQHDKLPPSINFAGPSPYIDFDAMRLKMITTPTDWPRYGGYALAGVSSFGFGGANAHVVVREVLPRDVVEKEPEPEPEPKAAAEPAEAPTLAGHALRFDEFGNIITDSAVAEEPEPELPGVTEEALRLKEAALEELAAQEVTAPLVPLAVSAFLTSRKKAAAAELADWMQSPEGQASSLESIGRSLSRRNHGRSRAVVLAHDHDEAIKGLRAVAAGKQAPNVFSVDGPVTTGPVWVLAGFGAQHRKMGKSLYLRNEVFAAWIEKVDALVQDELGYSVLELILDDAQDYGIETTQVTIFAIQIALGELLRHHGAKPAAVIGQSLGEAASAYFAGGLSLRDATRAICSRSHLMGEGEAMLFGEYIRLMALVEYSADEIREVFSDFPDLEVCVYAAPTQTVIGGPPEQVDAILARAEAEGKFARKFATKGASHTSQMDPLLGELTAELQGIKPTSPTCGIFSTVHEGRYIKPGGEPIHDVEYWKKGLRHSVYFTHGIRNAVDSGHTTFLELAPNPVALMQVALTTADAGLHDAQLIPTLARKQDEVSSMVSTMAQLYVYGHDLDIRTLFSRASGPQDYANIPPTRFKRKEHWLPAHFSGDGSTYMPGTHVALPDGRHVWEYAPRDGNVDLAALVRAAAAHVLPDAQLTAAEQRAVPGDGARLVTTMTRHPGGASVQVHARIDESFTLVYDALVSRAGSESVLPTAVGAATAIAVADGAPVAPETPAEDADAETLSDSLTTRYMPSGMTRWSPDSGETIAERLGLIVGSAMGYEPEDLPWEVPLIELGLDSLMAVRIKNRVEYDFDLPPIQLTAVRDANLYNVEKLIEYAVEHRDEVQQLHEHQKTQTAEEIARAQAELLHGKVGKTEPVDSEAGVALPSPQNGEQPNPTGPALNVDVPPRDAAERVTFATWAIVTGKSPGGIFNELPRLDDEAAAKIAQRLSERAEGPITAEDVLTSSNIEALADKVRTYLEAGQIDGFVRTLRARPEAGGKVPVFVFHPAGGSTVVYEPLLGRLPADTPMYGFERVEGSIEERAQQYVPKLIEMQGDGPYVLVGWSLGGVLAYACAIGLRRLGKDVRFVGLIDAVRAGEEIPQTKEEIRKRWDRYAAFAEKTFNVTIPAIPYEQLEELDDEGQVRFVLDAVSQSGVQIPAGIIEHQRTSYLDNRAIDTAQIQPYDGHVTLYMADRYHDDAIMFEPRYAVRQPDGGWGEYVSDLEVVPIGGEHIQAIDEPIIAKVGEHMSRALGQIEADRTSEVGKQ

Source: ChEMBL document CHEMBL3988442, “University of Dundee, Small-Polar-MMV Screening Library” (2021).

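Enzyme assay of the thioesterase domain of polyketide synthase 13; the read-out is not stated. Target: Polyketide synthase Pks13, Mycobacterium tuberculosis (UniProt I6X8D2). Tested at 30 µM. Higher reads as stronger inhibition (inferred from which compounds were picked for retests). Size under these conditions: about 67,000 compounds, about 300 of them at 50% or above in at least one test.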

Values are the deposited “Percent Effect”, in %.
The record does not define 0% and 100%; most values in the screen are far below 50% and negative numbers occur (in some assays of this library far below -100).
The compounds are a random part of those screened.

| # | SMILES | Percent Effect |
|---|---|---|
| 1 | `CCN1CCO[C@@H]2CN(S(=O)(=O)c3cccs3)CC[C@@H]2C1` | 8.988 |
| 2 | `Cc1cc(C2CCCN2C(=O)c2cc3c(s2)CCC3)on1` (stereo not drawn) | -22.8 |
| 3 | `CN1CCCC(c2nnc3n2CCN(S(=O)(=O)c2ccccc2Cl)C3)C1` (stereo not drawn) | 3.035 |
| 4 | `CN(CCc1ccccn1)Cc1nccn1Cc1ccccc1` | -2.081 |
| 5 | `Cc1ncc(CC(=O)N2CCC3(CCC(=O)N(CCO)C3)CC2)c(=O)[nH]1` | -27.3 |
| 6 | `Cc1nc(C)n(CC2CN(Cc3cccc4ccccc34)CCO2)n1` (stereo not drawn) | -6.368 |
| 7 | `CC[C@H](C)Nc1ncc(-c2cccc(NC(=O)CNC)c2)cn1` | 15.49 |
| 8 | `O=C1CO[C@@H]2CN(Cc3cccnc3)C[C@H]2N1Cc1ccncc1` | -2.852 |
| 9 | `CN(C)C(=O)[C@H]1C[C@@H]2CCN(Cc3ccncc3)C[C@H]2O1` | -9.387 |
| 10 | `CCCNC(=O)C(C)Oc1ccc(F)cc1` (stereo not drawn) | -17.54 |
| 11 | `CCC(C)(C)C(=O)NCCCOC1CCOC1` (stereo not drawn) | -0.8558 |
| 12 | `Cc1ccc(S(N)(=O)=O)cc1C(=O)NC1CCCN(C)C1` (stereo not drawn) | -8.643 |
| 13 | `Nc1cc(C(=O)NCC2CCN(CCc3ccccc3)C2)ccn1` (stereo not drawn) | 1.057 |
| 14 | `CC(C)NC(=O)N1C[C@@H](F)[C@@H](OCc2nc3ccccc3o2)C1` | -5.037 |
| 15 | `O=S(=O)(C1CC1)N1CCO[C@H]2[C@@H](Oc3ncccc3F)CC[C@@H]21` | -16.24 |
| 16 | `COc1ccc(CN(C)[C@@H]2CN(C(=O)c3cccn3C)C[C@H]2O)cc1` | -31.91 |
| 17 | `COc1c(C)cc(C(C(=O)O)N(C)Cc2ccn[nH]2)cc1C` (stereo not drawn) | -24.59 |
| 18 | `O=C1NCC(C(=O)NCc2ccccc2CN2CCOCC2)N1` (stereo not drawn) | -36.33 |
| 19 | `Cc1nn(C)c(N2CCOCC2)c1CNC1CCCCNC1=O` (stereo not drawn) | -34.3 |
| 20 | `O=C(Nc1ccc(Cl)cn1)c1cncc(C2CCNCC2)n1` | 8.944 |
| 21 | `CC(=O)N1CCCC1c1nccnc1Nc1cccc(C)n1` (stereo not drawn) | -16.24 |
| 22 | `Cc1nn(-c2ncccn2)c2c1C(c1cnn(C)c1)SCC(=O)N2` (stereo not drawn) | -84.5 |
| 23 | `Cn1nc(CNC(=O)c2nc3ccccc3s2)c2c1CCOC2` | -22.1 |
| 24 | `Cc1cccc(CN2C(=O)C[C@H]3[C@@H]2CCN3CC2CC2)n1` | -3.484 |
| 25 | `Cc1noc(C(C)C)c1C(=O)NCc1ccc(N(C)C)c(F)c1` | -19.86 |
| 26 | `Cn1ccnc1C(=O)NC[C@H]1OC[C@@H]2CCN(S(C)(=O)=O)C[C@@H]21` | -13.18 |
| 27 | `Cc1nnc(C(C)N2CCCN(Cc3noc(C4CC4)n3)CC2)o1` (stereo not drawn) | -21.09 |
| 28 | `CCc1ncc(C(=O)NC(C)(C)C(=O)OC)s1` | 18.5 |
| 29 | `O=C(Cc1ccsc1)N1CCN(CCOc2ccccc2)CC1` | -5.571 |
| 30 | `CC(C)Oc1ccc(C(=O)N2CCCCC2Cn2cccn2)cn1` (stereo not drawn) | -4.091 |
| 31 | `Cc1ccc2nc(CN(C)Cc3ccc(C)o3)cc(=O)n2c1` | 14.46 |
| 32 | `CC(=O)c1cccc(NC(=O)CCn2nc(-c3cccs3)oc2=O)c1` | -16.38 |
| 33 | `CC(C)Nc1cc(-c2c[nH]nc2C2CCN(C(=O)C3CCC3)C2)ccn1` (stereo not drawn) | -2.876 |
| 34 | `CN(CCc1cn[nH]c1)C(=O)C1CC(=O)N(Cc2cccnc2)C1` (stereo not drawn) | -46.84 |
| 35 | `COCc1csc(NC(=O)NCc2ccsc2)n1` | -24.81 |
| 36 | `CN(C)S(=O)(=O)N1C[C@@H]2CC[C@H](C1)N(Cc1cccc(C#N)c1)C2` | -7.228 |
| 37 | `CCC[C@H]1CN(S(=O)(=O)c2cc(C)ccc2C)C[C@@H]1N` | -7.552 |
| 38 | `Cn1cccc1C(=O)N1CCC2(CCCN2S(C)(=O)=O)CC1` | -31.5 |
| 39 | `CC(C)c1noc(C(C)N2CCN(CCCN3CCCC3=O)CC2)n1` (stereo not drawn) | -4.226 |
| 40 | `c1cnc(NCc2noc3c2CN(CCN2CCCC2)CC3)nc1` | 4.421 |
| 41 | `CN(C)c1ccc(CNC2=NCCCN2)cc1` | 5.414 |
| 42 | `CN(CCOc1ccc(F)cc1)S(=O)(=O)N1CCOCC1` | -33.39 |
| 43 | `CCN(Cc1cnn(C)c1)C[C@H]1CC[C@@H](Cc2cccc(C#N)c2)O1` | -34.09 |
| 44 | `Cc1nsc(NC2CCOC3(CCCCC3)C2)n1` (stereo not drawn) | -35.85 |
| 45 | `COc1ncc(C)cc1NC(=O)COc1ccccc1F` | -1.055 |
| 46 | `CNC(=O)CN1CCOCC12CCN(C(=O)c1ccccc1)CC2` | -14.64 |
| 47 | `CN(CCc1ccc2c(c1)CCO2)C1CCS(=O)(=O)CC1` | 12.21 |
| 48 | `O=C1[C@H]2CN(C3CCOCC3)C[C@H]2CN1Cc1cccnc1` | -3.34 |
| 49 | `CCc1nnsc1C(=O)N1CCN(CC(O)C(C)(C)C)CC1` (stereo not drawn) | 2.938 |
| 50 | `O=C(CN1CCCC(c2ccn[nH]2)C1)Nc1nc2c(s1)CCC2` (stereo not drawn) | -23.51 |
| 51 | `Cc1cnc(CN(C)CC2CCCN2c2cccnn2)cn1` (stereo not drawn) | -22.45 |
| 52 | `CCn1cc2c(n1)CN(Cc1nccs1)CC2COCC1CC1` (stereo not drawn) | -26.11 |
| 53 | `Cc1cnc(Nc2nccnc2C2CCN(C)CC2)s1` | -14.34 |
| 54 | `CC(C)C(C(=O)N1CCN(Cc2cscn2)CC1)n1cncn1` (stereo not drawn) | -7.095 |
| 55 | `COc1ccccc1C(C)NC(=O)N1CCC(n2cncn2)CC1` (stereo not drawn) | -2.994 |
| 56 | `CCC(NC(=O)C1CCN(C(=O)C2CC2)CC1)c1cn2cccnc2n1` (stereo not drawn) | -6.128 |
| 57 | `CCOc1cc(Cl)ccc1CNC(=O)N(C)CC(C)(C)O` | -6.403 |
| 58 | `COCC1CN(Cc2ccc3c(c2)OCO3)Cc2ncn(C)c21` (stereo not drawn) | -7.176 |
| 59 | `CC(C)(C)c1n[nH]c(C2CN(C(=O)c3cc(Cl)c[nH]3)CCO2)n1` (stereo not drawn) | -23.52 |
| 60 | `Cc1ncsc1CN1CCOC(C)(C(N)=O)C1` (stereo not drawn) | -1.864 |
| 61 | `CCC(c1ccccc1)S(=O)(=O)CCO` (stereo not drawn) | -11.73 |
| 62 | `CCCC(C)(C)NC(=O)c1cnc(C)s1` | -17.58 |
| 63 | `c1cnc(N2C[C@H]3CCC[C@@H](CN4CCCC4)[C@H]3C2)nc1` | -8.702 |
| 64 | `Fc1ccc(CN2CCOCC3(CCN(Cc4nccs4)C3)C2)cc1` (stereo not drawn) | -29.53 |
| 65 | `COc1ccccc1N1CCC(CNCc2cccc(OC)c2OC)C1` (stereo not drawn) | -8.683 |
| 66 | `CN(C)S(=O)(=O)N1CCCC1CC(=O)c1cccs1` (stereo not drawn) | -146.5 |
| 67 | `CCOCC(O)CN1CCN(C(=O)c2cnc3n[nH]c(C)c3c2)CC1` (stereo not drawn) | -8.105 |
| 68 | `COCCN(Cc1ccco1)Cc1nc(-c2ccccc2)no1` | 6.689 |
| 69 | `Cc1nc(CN(C)C)cc(N2CCCC(COc3ccc(F)cc3)C2)n1` (stereo not drawn) | -18.41 |
| 70 | `NC(=O)c1cnc(NCC(=O)NCc2ccccc2)c(Cl)c1` | 9.954 |
| 71 | `CCc1cnc(N2CC3(CCN(Cc4ccsc4)C3)C2)nc1` | -8.167 |
| 72 | `C[C@@H]1CN(C2(C(=O)N3CCSCC3)Cc3ccccc3C2)C[C@H](C)O1` | 2.236 |
| 73 | `COCC(=O)N1CCCCC1c1ccnc(Nc2cnccn2)n1` (stereo not drawn) | -6.63 |

For reference, 9 entries once more:

SMILES	Percent Effect
Cc1cccc(CN2C(=O)C[C@H]3[C@@H]2CCN3CC2CC2)n1	-3.484
c1cnc(N2C[C@H]3CCC[C@@H](CN4CCCC4)[C@H]3C2)nc1	-8.702
O=C(Nc1ccc(Cl)cn1)c1cncc(C2CCNCC2)n1	8.944
C[C@@H]1CN(C2(C(=O)N3CCSCC3)Cc3ccccc3C2)C[C@H](C)O1	2.236
Nc1cc(C(=O)NCC2CCN(CCc3ccccc3)C2)ccn1 (stereo not drawn)	1.057
Fc1ccc(CN2CCOCC3(CCN(Cc4nccs4)C3)C2)cc1 (stereo not drawn)	-29.53
CC[C@H](C)Nc1ncc(-c2cccc(NC(=O)CNC)c2)cn1	15.49
CCC[C@H]1CN(S(=O)(=O)c2cc(C)ccc2C)C[C@@H]1N	-7.552
COc1ccccc1N1CCC(CNCc2cccc(OC)c2OC)C1 (stereo not drawn)	-8.683